From paper PMC11110763, “Carltonine-derived compounds for targeted butyrylcholinesterase inhibition” (RSC Medicinal Chemistry, 2024)

Assay: Human liver microsomal (HLM) stability
Conditions: microsomes, pH 7.4

With `CN1C(=O)CN=C(c2ccccc2)c2cc(Cl)ccc21` [Diazepam, reference compound] as the compound, how does the microsomal CLint at 0.75 h, 3 µM read?
The microsomal CLint at 0.75 h, 3 µM was 4.6 µL/min/mg.
